Measurements from article PMC10251843 (Animals : an Open Access Journal from MDPI, 2023).

Assay: Nonspecific absorption (NSB) of the ultrafiltration unit
Settings: physiological saline, 25 °C; for No Pretreatment NSB (%): UFU not pretreated, n = 3; for Pretreatment NSB (%): UFU pretreated with 5% Tween 80, n = 3

## CCN1CCN(c2cc3c(cc2F)c(=O)c(C(=O)O)cn3C2CC2)CC1 [Enrofloxacin (EF), Enrofloxacin]
1 μg/mL
  No Pretreatment NSB (%): 99.24%
  Pretreatment NSB (%): 0.52%
5 μg/mL
  No Pretreatment NSB (%): 93.33%
  Pretreatment NSB (%): 9.66%
10 μg/mL
  No Pretreatment NSB (%): 82.05%
  Pretreatment NSB (%): 16.14%
